Test results: patent US20060257938A1, “Method of screening for drugs that block ligand binding to a lipid binding protein” (priority 2005, published 2006)

B1: 14E, 72A (protein, listed as Rattus norvegicus)
chain: AFDGTWKVDRNENEEKFMEKMGINVVKRKLGAHDNLKLTITQEGNKFTVKESSNFRNIDVVFELGVDFAYSAADGTELTGTWTMEGNKLVGKFKRVDNGKELIAVREISGNELIQTYTYEGVEAKRIFKKE
modifications: PEPTIDE (1)...(131) wild-type rat intestinal fatty acid binding protein
B2: 14L, 72A (protein, listed as Rattus norvegicus)
chain: AFDGTWKVDRNENLEKFMEKMGINVVKRKLGAHDNLKLTITQEGNKFTVKESSNFRNIDVVFELGVDFAYSAADGTELTGTWTMEGNKLVGKFKRVDNGKELIAVREISGNELIQTYTYEGVEAKRIFKKE
modifications: PEPTIDE (1)...(131) wild-type rat intestinal fatty acid binding protein
B3: 14F, 72A (protein, listed as Rattus norvegicus)
chain: AFDGTWKVDRNENFEKFMEKMGINVVKRKLGAHDNLKLTITQEGNKFTVKESSNFRNIDVVFELGVDFAYSAADGTELTGTWTMEGNKLVGKFKRVDNGKELIAVREISGNELIQTYTYEGVEAKRIFKKE
modifications: PEPTIDE (1)...(131) wild-type rat intestinal fatty acid binding protein
B4: 102L, 72A (protein, listed as Rattus norvegicus)
chain: AFDGTWKVDRNENYEKFMEKMGINVVKRKLGAHDNLKLTITQEGNKFTVKESSNFRNIDVVFELGVDFAYSAADGTELTGTWTMEGNKLVGKFKRVDNGKELIAVREISGNELIQTYTYEGVEAKRIFKKE
modifications: PEPTIDE (1)...(131) wild-type rat intestinal fatty acid binding protein
B5: 14M, 72A (protein, listed as Rattus norvegicus)
chain: AFDGTWKVDRNENMEKFMEKMGINVVKRKLGAHDNLKLTITQEGNKFTVKESSNFRNIDVVFELGVDFAYSAADGTELTGTWTMEGNKLVGKFKRVDNGKELIAVREISGNELIQTYTYEGVEAKRIFKKE
modifications: PEPTIDE (1)...(131) wild-type rat intestinal fatty acid binding protein
B6: 102K, 72A (protein, listed as Rattus norvegicus)
chain: AFDGTWKVDRNENYEKFMEKMGINVVKRKLGAHDNLKLTITQEGNKFTVKESSNFRNIDVVFELGVDFAYSAADGTELTGTWTMEGNKLVGKFKRVDNGKEKIAVREISGNELIQTYTYEGVEAKRIFKKE
modifications: PEPTIDE (1)...(131) wild-type rat intestinal fatty acid binding protein
B7: 17D, 72A (protein, listed as Rattus norvegicus)
chain: AFDGTWKVDRNENYEKDMEKMGINVVKRKLGAHDNLKLTITQEGNKFTVKESSNFRNIDVVFELGVDFAYSAADGTELTGTWTMEGNKLVGKFKRVDNGKELIAVREISGNELIQTYTYEGVEAKRIFKKE
modifications: PEPTIDE (1)...(131) wild-type rat intestinal fatty acid binding protein
B8: 14S, 72A (protein, listed as Rattus norvegicus)
chain: AFDGTWKVDRNENSEKFMEKMGINVVKRKLGAHDNLKLTITQEGNKFTVKESSNFRNIDVVFELGVDFAYSAADGTELTGTWTMEGNKLVGKFKRVDNGKELIAVREISGNELIQTYTYEGVEAKRIFKKE
modifications: PEPTIDE (1)...(131) wild-type rat intestinal fatty acid binding protein
B9: 14R, 72A (protein, listed as Rattus norvegicus)
chain: AFDGTWKVDRNENREKFMEKMGINVVKRKLGAHDNLKLTITQEGNKFTVKESSNFRNIDVVFELGVDFAYSAADGTELTGTWTMEGNKLVGKFKRVDNGKELIAVREISGNELIQTYTYEGVEAKRIFKKE
modifications: PEPTIDE (1)...(131) wild-type rat intestinal fatty acid binding protein
B10: 14W, 72A (protein, listed as Rattus norvegicus)
chain: AFDGTWKVDRNENWEKFMEKMGINVVKRKLGAHDNLKLTITQEGNKFTVKESSNFRNIDVVFELGVDFAYSAADGTELTGTWTMEGNKLVGKFKRVDNGKELIAVREISGNELIQTYTYEGVEAKRIFKKE
modifications: PEPTIDE (1)...(131) wild-type rat intestinal fatty acid binding protein
B11: 14H, 72A (protein, listed as Rattus norvegicus)
chain: AFDGTWKVDRNENHEKFMEKMGINVVKRKLGAHDNLKLTITQEGNKFTVKESSNFRNIDVVFELGVDFAYSAADGTELTGTWTMEGNKLVGKFKRVDNGKELIAVREISGNELIQTYTYEGVEAKRIFKKE
modifications: PEPTIDE (1)...(131) wild-type rat intestinal fatty acid binding protein
B12: 17A, 72A (protein, listed as Rattus norvegicus)
chain: AFDGTWKVDRNENYEKAMEKMGINVVKRKLGAHDNLKLTITQEGNKFTVKESSNFRNIDVVFELGVDFAYSAADGTELTGTWTMEGNKLVGKFKRVDNGKELIAVREISGNELIQTYTYEGVEAKRIFKKE
modifications: PEPTIDE (1)...(131) wild-type rat intestinal fatty acid binding protein
B13: 14P, 72A (protein, listed as Rattus norvegicus)
chain: AFDGTWKVDRNENPEKFMEKMGINVVKRKLGAHDNLKLTITQEGNKFTVKESSNFRNIDVVFELGVDFAYSAADGTELTGTWTMEGNKLVGKFKRVDNGKELIAVREISGNELIQTYTYEGVEAKRIFKKE
modifications: PEPTIDE (1)...(131) wild-type rat intestinal fatty acid binding protein
B14: 14G, 72A (protein, listed as Rattus norvegicus)
chain: AFDGTWKVDRNENGEKFMEKMGINVVKRKLGAHDNLKLTITQEGNKFTVKESSNFRNIDVVFELGVDFAYSAADGTELTGTWTMEGNKLVGKFKRVDNGKELIAVREISGNELIQTYTYEGVEAKRIFKKE
modifications: PEPTIDE (1)...(131) wild-type rat intestinal fatty acid binding protein
B15: 14T, 72A (protein, listed as Rattus norvegicus)
chain: AFDGTWKVDRNENTEKFMEKMGINVVKRKLGAHDNLKLTITQEGNKFTVKESSNFRNIDVVFELGVDFAYSAADGTELTGTWTMEGNKLVGKFKRVDNGKELIAVREISGNELIQTYTYEGVEAKRIFKKE
modifications: PEPTIDE (1)...(131) wild-type rat intestinal fatty acid binding protein
B16: 14Q, 72A (protein, listed as Rattus norvegicus)
chain: AFDGTWKVDRNENQEKFMEKMGINVVKRKLGAHDNLKLTITQEGNKFTVKESSNFRNIDVVFELGVDFAYSAADGTELTGTWTMEGNKLVGKFKRVDNGKELIAVREISGNELIQTYTYEGVEAKRIFKKE
modifications: PEPTIDE (1)...(131) wild-type rat intestinal fatty acid binding protein
B17: 102I, 72A (protein, listed as Rattus norvegicus)
chain: AFDGTWKVDRNENYEKFMEKMGINVVKRKLGAHDNLKLTITQEGNKFTVKESSNFRNIDVVFELGVDFAYSAADGTELTGTWTMEGNKLVGKFKRVDNGKEIIAVREISGNELIQTYTYEGVEAKRIFKKE
modifications: PEPTIDE (1)...(131) wild-type rat intestinal fatty acid binding protein
B18: 14K, 72A (protein, listed as Rattus norvegicus)
chain: AFDGTWKVDRNENKEKFMEKMGINVVKRKLGAHDNLKLTITQEGNKFTVKESSNFRNIDVVFELGVDFAYSAADGTELTGTWTMEGNKLVGKFKRVDNGKELIAVREISGNELIQTYTYEGVEAKRIFKKE
modifications: PEPTIDE (1)...(131) wild-type rat intestinal fatty acid binding protein
B19: 17C, 72A (protein, listed as Rattus norvegicus)
chain: AFDGTWKVDRNENYEKCMEKMGINVVKRKLGAHDNLKLTITQEGNKFTVKESSNFRNIDVVFELGVDFAYSAADGTELTGTWTMEGNKLVGKFKRVDNGKELIAVREISGNELIQTYTYEGVEAKRIFKKE
modifications: PEPTIDE (1)...(131) wild-type rat intestinal fatty acid binding protein
B20: 14V, 72A (protein, listed as Rattus norvegicus)
chain: AFDGTWKVDRNENVEKFMEKMGINVVKRKLGAHDNLKLTITQEGNKFTVKESSNFRNIDVVFELGVDFAYSAADGTELTGTWTMEGNKLVGKFKRVDNGKELIAVREISGNELIQTYTYEGVEAKRIFKKE
modifications: PEPTIDE (1)...(131) wild-type rat intestinal fatty acid binding protein
B21: 14I, 72A (protein, listed as Rattus norvegicus)
chain: AFDGTWKVDRNENIEKFMEKMGINVVKRKLGAHDNLKLTITQEGNKFTVKESSNFRNIDVVFELGVDFAYSAADGTELTGTWTMEGNKLVGKFKRVDNGKELIAVREISGNELIQTYTYEGVEAKRIFKKE
modifications: PEPTIDE (1)...(131) wild-type rat intestinal fatty acid binding protein
B22: 14N, 72A (protein, listed as Rattus norvegicus)
chain: AFDGTWKVDRNENNEKFMEKMGINVVKRKLGAHDNLKLTITQEGNKFTVKESSNFRNIDVVFELGVDFAYSAADGTELTGTWTMEGNKLVGKFKRVDNGKELIAVREISGNELIQTYTYEGVEAKRIFKKE
modifications: PEPTIDE (1)...(131) wild-type rat intestinal fatty acid binding protein
B23: 17E, 72A (protein, listed as Rattus norvegicus)
chain: AFDGTWKVDRNENYEKEMEKMGINVVKRKLGAHDNLKLTITQEGNKFTVKESSNFRNIDVVFELGVDFAYSAADGTELTGTWTMEGNKLVGKFKRVDNGKELIAVREISGNELIQTYTYEGVEAKRIFKKE
modifications: PEPTIDE (1)...(131) wild-type rat intestinal fatty acid binding protein

Assay: Baseline fluorescence ratio Ro of probe in absence of analyte
Conditions: baseline fluorescence ratio of probe, no fatty acid

Q: With B1 as the molecule, how does the AvgOfRo read?
A: 0.41

Q: With B2 as the molecule, how does the AvgOfRo read?
A: 0.31

Q: With B3 as the molecule, how does the AvgOfRo read?
A: 0.22

Q: For B4, which AvgOfRo is on record?
A: 0.22

Q: What about the Ro of the same molecule?
A: 0.154

Q: Which results are given for B5?
A: AvgOfRo: 0.33; Ro: 0.326

Q: Which AvgOfRo does the source give for B6 here?
A: 0.39

Q: With B7 as the molecule, how does the AvgOfRo read?
A: 0.40

Q: Which AvgOfRo does the source give for B8 here?
A: 0.46

Q: For B9, which AvgOfRo is on record?
A: 0.41

Q: For B10, which AvgOfRo is on record?
A: 0.11

Q: For B11, which AvgOfRo is on record?
A: 0.35

Q: Which AvgOfRo does the source give for B12 here?
A: 0.28

Q: With B13 as the molecule, how does the AvgOfRo read?
A: 0.46

Q: Which AvgOfRo does the source give for B14 here?
A: 0.44

Q: Which AvgOfRo does the source give for B15 here?
A: 0.46

Q: For B16, which AvgOfRo is on record?
A: 0.40

Q: For B17, which AvgOfRo is on record?
A: 0.22

Q: What about the Ro of the same molecule?
A: 0.217

Q: For B18, which AvgOfRo is on record?
A: 0.36

Q: For B19, which AvgOfRo is on record?
A: 0.36

Q: Which AvgOfRo does the source give for B20 here?
A: 0.32

Q: And the Ro?
A: 0.317

Q: Which AvgOfRo does the source give for B21 here?
A: 0.39

Q: And the Ro?
A: 0.391

Q: With B22 as the molecule, how does the AvgOfRo read?
A: 0.45

Q: For B23, which AvgOfRo is on record?
A: 0.27
